Assay results reported in the M2OR odorant receptor database.
Only a part is listed here, and it is no random draw. Calls are pooled over several reports, among them a noisy single-well screen. This is one part of the list.

What was measured:
Settings in all cases: stereoisomer not certain
OR4F4 = tested on: T1, OR4F4
T1 sequence (whole entry): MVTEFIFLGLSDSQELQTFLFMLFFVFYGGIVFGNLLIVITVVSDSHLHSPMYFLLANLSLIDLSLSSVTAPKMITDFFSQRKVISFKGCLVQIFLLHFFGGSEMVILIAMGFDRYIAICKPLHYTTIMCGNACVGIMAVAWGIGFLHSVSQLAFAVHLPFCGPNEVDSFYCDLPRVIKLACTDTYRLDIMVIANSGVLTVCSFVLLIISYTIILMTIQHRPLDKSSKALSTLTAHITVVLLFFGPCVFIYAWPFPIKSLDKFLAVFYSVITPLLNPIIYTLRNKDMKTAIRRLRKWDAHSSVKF
How it was run: (§1)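 Whether a receptor–molecule pair is responsive (active) rests on the original authors' judgment that its measured signal was statistically different from baseline. Pairs without that judgment are non-responsive (inactive). Sources used varied assay methods, commonly transient luciferase assays in mammalian cell lines.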

OR4F6 (Homo sapiens) = target: T2, OR4F6 (Homo sapiens) (UniProt Q8NGB9)
T2 sequence (whole entry): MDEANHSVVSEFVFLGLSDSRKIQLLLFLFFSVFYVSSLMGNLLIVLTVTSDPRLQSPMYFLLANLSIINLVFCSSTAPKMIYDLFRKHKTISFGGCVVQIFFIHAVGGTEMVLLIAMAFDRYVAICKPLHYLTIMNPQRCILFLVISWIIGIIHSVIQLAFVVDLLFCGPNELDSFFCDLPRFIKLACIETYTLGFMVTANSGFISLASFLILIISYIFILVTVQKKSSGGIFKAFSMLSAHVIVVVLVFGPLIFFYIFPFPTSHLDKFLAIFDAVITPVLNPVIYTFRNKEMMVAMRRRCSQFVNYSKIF
How it was run: as §1

OR4K13 (Homo sapiens) = target: T3, OR4K13 (Homo sapiens) (UniProt Q8NH42)
T3 sequence (whole entry): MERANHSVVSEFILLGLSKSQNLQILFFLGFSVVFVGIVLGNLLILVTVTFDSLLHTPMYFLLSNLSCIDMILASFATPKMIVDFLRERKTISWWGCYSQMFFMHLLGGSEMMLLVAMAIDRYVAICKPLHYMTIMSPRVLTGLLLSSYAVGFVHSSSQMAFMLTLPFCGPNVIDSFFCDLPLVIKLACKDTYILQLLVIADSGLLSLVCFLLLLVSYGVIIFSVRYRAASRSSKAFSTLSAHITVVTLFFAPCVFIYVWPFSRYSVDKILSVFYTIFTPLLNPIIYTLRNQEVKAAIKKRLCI
How it was run: as §1

OR4K14 (Homo sapiens) = target: T4, OR4K14 (Homo sapiens) (UniProt Q8NGD5)
T4 sequence (whole entry): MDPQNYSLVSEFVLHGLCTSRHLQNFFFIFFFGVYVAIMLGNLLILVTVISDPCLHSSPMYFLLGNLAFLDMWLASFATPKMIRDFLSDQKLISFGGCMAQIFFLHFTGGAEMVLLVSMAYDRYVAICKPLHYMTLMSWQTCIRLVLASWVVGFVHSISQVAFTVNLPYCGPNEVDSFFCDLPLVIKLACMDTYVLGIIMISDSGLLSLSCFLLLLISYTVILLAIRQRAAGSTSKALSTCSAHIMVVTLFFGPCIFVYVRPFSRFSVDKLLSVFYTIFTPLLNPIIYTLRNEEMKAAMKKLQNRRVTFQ
How it was run: as §1

OR4K1 = tested on: T5, OR4K1
T5 sequence (whole entry): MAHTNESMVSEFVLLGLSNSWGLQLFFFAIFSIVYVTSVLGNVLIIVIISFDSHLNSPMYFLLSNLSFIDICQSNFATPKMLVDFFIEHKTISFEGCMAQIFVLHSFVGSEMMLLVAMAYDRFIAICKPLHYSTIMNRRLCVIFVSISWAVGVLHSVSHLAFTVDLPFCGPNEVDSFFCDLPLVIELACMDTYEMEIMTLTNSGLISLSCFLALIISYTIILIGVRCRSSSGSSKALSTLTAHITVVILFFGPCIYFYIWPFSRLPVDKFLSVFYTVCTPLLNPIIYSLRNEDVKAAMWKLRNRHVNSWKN
How it was run: as §1

OR4K2 (Homo sapiens) = target: T6, OR4K2 (Homo sapiens) (UniProt Q8NGD2)
T6 sequence (whole entry): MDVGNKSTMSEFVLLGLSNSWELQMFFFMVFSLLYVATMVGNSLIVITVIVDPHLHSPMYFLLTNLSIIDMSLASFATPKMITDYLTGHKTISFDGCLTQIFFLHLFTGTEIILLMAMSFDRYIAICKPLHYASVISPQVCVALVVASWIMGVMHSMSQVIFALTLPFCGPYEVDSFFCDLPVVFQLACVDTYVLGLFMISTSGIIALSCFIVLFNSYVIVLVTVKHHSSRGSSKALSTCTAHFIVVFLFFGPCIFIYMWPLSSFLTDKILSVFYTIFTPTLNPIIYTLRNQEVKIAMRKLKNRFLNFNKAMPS
How it was run: as §1

OR4K3 = tested on: T7, OR4K3
T7 sequence (whole entry): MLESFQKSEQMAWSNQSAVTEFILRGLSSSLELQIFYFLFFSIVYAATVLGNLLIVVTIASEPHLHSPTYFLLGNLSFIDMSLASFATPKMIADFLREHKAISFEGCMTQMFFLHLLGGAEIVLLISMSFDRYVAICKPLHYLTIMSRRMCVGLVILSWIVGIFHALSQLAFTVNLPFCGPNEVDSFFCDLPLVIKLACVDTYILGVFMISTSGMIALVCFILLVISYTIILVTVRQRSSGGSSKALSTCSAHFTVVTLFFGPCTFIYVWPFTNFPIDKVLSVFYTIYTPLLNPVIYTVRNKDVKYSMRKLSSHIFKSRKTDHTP
How it was run: as §1

OR4K5 (Homo sapiens) = target: T8, OR4K5 (Homo sapiens) (UniProt Q8NGD3)
T8 sequence (whole entry): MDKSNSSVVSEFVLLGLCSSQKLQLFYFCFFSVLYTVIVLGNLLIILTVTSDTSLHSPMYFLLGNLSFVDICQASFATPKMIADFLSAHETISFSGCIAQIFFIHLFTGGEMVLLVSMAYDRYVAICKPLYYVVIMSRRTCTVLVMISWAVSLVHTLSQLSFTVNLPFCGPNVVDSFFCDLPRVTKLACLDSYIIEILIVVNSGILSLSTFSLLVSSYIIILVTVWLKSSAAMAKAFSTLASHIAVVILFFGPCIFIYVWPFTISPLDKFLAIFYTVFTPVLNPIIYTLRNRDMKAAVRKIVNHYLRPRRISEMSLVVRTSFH
How it was run: as §1

OR4KF = tested on: T9, OR4KF
T9 sequence (whole entry): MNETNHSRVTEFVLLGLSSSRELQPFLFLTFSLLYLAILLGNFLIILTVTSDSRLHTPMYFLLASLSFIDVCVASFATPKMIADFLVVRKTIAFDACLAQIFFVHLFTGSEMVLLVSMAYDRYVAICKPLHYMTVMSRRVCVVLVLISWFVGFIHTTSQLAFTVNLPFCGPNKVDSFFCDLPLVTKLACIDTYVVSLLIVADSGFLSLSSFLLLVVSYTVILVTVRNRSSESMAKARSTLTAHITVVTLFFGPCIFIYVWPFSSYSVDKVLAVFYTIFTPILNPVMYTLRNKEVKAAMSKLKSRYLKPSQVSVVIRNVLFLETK
How it was run: as §1

OR4KH = tested on: T10, OR4KH
T10 sequence (whole entry): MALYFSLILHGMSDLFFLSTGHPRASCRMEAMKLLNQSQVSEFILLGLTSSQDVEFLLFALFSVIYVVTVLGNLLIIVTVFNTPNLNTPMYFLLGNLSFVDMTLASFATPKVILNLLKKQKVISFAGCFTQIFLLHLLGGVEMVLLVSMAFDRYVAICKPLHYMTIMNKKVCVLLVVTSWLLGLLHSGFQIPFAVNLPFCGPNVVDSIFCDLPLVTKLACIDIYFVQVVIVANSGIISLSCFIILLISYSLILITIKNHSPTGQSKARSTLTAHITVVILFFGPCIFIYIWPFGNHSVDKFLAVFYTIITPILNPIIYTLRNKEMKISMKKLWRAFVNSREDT
How it was run: as §1

Measured: odorant receptor agonist call;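 further: active if original authors judged signal statistically different from baseline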

CCCCOC(C)=O
inactive: all assays above
